Laboratory results: patent publication US11918577B2, “Dipeptidyl peptidase-4 inhibitors for topical eye treatment of retinal neurodegenerative diseases” (FUNDACIÓ HOSPITAL UNIVERSITARI VALL D'HEBRON - INSTITUT DE …, priority 2016, dated 2024)
“Also recorded” adds a separate entry of the source.

Assay: Blood glucose concentration and body weight at end of eye drop treatment in db/db mice
Format: in vivo, mouse
Conditions: eye drops

With `N#C[C@@H]1C[C@@H]2C[C@@H]2N1C(=O)[C@@H](N)C12CC3CC(CC(O)(C3)C1)C2` [Saxagliptin, (1S,3S,5S)-2-[(2S)-2-amino-2-(3-hydroxy-1-adamantyl)acetyl]-2-azabicyclo[3.1.0]hexane-3-carbonitrile] the “blood glucose concentration at the end of treatment vs vehicle” value was “similar; also recorded: without any change in blood glucose levels” and the “body weight at the end of treatment vs vehicle” value was “similar”.

In the case of `N[C@@H](CC(=O)N1CCn2c(nnc2C(F)(F)F)C1)Cc1cc(F)c(F)cc1F` [Sitagliptin, (R)-4-oxo-4-[3-(trifluoromethyl)-5,6-dihydro[1,2,4]triazolo[4,3-a]pyrazin-7(8H)-yl]-1-(2,4,5-trifluorophenyl)butan-2-amine], the “blood glucose concentration at the end of treatment vs vehicle” value is reported as “similar; also recorded: without any change in blood glucose levels” and the “body weight at the end of treatment vs vehicle” value is reported as “similar”.
